Data published in paper PMC8719881.

Protein sequences, listed by entry. Tags and fused reporters are not part of them. Residues count along the entry.
UniProt Q9UQ90, residues 106-795: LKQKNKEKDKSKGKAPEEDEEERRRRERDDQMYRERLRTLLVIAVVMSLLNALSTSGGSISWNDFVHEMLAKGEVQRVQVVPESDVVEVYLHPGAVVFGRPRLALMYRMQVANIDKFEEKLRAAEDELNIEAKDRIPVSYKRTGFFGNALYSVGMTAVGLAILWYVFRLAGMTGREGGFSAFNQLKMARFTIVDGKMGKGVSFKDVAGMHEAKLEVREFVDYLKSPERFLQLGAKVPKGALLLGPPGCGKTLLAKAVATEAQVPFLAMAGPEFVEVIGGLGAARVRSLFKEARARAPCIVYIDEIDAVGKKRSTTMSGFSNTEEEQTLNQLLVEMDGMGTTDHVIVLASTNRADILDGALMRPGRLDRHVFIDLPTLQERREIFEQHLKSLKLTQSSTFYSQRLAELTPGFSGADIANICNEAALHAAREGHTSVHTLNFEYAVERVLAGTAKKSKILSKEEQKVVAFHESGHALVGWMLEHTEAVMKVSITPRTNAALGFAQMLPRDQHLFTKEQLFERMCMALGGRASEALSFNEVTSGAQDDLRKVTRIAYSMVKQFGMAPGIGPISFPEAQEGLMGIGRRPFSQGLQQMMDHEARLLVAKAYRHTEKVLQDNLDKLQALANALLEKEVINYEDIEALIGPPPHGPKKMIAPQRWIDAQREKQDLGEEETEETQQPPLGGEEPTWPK
UniProt Q9Y4W6, residues 67-797: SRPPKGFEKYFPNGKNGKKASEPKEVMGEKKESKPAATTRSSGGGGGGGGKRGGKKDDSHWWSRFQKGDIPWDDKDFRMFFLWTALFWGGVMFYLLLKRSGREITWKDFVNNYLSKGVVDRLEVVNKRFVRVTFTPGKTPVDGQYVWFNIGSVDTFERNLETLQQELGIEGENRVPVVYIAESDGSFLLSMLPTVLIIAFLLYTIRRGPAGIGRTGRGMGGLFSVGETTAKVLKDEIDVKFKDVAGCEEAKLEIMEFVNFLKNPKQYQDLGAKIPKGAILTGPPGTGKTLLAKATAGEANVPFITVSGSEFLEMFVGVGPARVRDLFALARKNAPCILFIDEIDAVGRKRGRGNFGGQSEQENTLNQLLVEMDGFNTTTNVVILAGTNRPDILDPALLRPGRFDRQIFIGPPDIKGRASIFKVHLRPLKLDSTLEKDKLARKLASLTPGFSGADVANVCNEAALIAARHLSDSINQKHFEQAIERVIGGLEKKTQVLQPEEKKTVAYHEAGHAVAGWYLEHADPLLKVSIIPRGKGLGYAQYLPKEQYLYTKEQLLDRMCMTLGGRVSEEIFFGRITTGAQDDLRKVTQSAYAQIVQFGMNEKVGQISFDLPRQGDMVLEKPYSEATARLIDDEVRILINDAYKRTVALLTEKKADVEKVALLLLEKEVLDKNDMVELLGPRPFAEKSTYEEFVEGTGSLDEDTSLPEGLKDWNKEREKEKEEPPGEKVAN

Biological target: T1, SMIM4^FLAG (human) (UniProt Q8WVI0)
T1 sequence: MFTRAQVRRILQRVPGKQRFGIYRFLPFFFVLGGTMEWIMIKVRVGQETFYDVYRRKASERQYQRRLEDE
Assay: affinity purification with mass spectrometry; SILAC; anti-FLAG immunoisolation from mitochondria of wild-type and FLAG-bait-expressing HEK293T cells (1% digitonin, 150 mM NaCl), FLAG peptide elution, LC-MS/MS, n=4 with label switch

Molecule | binding
SPG7 (from UniProt Q9UQ90 106-795) | binds
AFG3L2 (from UniProt Q9Y4W6 67-797) | binds
C12ORF73 (from UniProt Q69YU5 1-71) | binds
UQCC1 (protein, UniProt Q9NVA1 1-299) MALLVRVLRNQTSISQWVPVCSRLIPVSPTQGQGDRALSRTSQWPQMSQSRACGGSEQIPGIDIQLNRKYHTTRKLSTTKDSPQPVEEKVGAFTKIIEAMGFTGPLKYSKWKIKIAALRMYTSCVEKTDFEEFFLRCQMPDTFNSWFLITLLHVWMCLVRMKQEGRSGKYMCRIIVHFMWEDVQQRGRVMGVNPYILKKNMILMTNHFYAAILGYDEGILSDDHGLAAALWRTFFNRKCEDPRHLELLVEYVRKQIQYLDSMNGEDLLLTGEVSWRPLVEKNPQSILKPHSPTYNDEGL | binds
UQCC2 (protein, UniProt Q9BRT2 14-126) EEWPVDETKRGRDLGAYLRQRVAQAFREGENTQVAEPEACDQMYESLARLHSNYYKHKYPRPRDTSFSGLSLEEYKLILSTDTLEELKEIDKGMWKKLQEKFAPKGPEEDHKA | binds

No constants are given. Whether binding was seen depends on the method and setting. In cells and extracts the contact can be indirect. Here binding means that the protein was enriched with, or labelled near, the bait; the list need not be complete. Sequences can lack the tags named with a protein.
